Among the data in PMC6510816 are binding values, retold here.

Chains of the proteins cited; added tags and fusions are not shown. Lines headed by an entry give the natural chain unless they say otherwise; changes in a name come on top.
UniProt P63104: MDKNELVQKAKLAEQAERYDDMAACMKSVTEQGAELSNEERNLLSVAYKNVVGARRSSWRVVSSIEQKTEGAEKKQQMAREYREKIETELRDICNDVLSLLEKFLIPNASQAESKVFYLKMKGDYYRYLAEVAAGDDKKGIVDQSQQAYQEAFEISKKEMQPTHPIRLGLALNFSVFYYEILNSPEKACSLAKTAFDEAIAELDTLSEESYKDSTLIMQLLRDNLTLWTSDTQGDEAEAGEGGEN
UniProt P28482: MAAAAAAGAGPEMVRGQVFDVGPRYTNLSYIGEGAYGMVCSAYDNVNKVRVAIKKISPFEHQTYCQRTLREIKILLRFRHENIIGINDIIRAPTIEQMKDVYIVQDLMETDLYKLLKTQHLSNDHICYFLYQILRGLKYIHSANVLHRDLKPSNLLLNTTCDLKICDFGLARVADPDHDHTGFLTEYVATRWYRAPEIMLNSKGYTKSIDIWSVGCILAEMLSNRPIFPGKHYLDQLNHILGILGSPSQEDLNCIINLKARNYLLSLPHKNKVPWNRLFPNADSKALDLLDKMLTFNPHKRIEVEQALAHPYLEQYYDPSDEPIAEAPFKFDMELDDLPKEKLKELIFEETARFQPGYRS
UniProt P46937: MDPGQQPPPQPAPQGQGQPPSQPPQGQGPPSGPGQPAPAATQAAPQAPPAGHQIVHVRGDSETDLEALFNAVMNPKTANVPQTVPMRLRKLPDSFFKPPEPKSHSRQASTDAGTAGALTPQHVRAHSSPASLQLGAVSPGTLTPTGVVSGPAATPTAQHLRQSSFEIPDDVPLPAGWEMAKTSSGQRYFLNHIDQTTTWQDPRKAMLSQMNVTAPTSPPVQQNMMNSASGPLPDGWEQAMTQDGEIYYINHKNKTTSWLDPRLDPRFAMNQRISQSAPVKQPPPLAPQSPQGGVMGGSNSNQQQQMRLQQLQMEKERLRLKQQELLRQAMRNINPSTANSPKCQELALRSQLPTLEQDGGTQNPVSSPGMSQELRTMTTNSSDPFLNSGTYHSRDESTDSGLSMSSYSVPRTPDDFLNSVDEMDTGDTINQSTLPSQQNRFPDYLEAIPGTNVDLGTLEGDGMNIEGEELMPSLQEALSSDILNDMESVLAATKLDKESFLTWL
UniProt Q16665: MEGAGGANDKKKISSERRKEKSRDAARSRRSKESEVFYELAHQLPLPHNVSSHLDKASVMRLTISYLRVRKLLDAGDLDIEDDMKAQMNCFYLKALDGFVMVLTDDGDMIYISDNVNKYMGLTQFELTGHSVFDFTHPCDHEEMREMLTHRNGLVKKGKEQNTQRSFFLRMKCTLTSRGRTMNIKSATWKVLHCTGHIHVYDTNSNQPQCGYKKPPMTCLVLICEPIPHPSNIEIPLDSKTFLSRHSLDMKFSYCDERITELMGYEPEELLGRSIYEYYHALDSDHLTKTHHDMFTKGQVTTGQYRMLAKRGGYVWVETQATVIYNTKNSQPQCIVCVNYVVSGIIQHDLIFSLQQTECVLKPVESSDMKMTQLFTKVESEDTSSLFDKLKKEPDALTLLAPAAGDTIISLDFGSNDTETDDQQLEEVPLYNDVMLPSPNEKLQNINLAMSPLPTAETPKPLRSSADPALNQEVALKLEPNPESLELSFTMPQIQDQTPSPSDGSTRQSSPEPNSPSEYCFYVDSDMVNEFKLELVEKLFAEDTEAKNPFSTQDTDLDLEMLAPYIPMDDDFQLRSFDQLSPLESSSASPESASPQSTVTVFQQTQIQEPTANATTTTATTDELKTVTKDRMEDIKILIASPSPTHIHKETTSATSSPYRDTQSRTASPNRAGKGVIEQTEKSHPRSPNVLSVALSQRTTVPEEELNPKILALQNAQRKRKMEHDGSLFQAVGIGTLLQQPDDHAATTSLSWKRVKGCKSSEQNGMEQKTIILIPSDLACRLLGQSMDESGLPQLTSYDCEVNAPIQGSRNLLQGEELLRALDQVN
UniProt Q9GZV5: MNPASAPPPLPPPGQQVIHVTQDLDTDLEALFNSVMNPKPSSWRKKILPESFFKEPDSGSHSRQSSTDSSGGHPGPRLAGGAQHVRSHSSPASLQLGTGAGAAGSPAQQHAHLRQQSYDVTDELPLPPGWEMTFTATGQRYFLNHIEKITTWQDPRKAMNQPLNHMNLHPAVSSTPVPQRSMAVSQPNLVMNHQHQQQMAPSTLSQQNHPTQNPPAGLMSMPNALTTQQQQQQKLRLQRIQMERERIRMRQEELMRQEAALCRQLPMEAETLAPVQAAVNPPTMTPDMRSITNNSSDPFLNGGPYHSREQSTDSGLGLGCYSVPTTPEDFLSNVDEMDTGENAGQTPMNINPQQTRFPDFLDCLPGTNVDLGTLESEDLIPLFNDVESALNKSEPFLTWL

No constants are given. Whether binding was seen depends on the method and setting. For some of these results: In cells and extracts the contact can be indirect. Some binding calls cover weakened binding; strength is not graded here.

Experiment [1] has as its target Flag-tagged mutant 14-3-3ζ S37A (human) (UniProt P63104). Nature of the experiment: co-IP; SW-1990 cell lysates in RIPA buffer, protein A/G-sepharose beads overnight at 4 °C, washes with 300 mM NaCl, 0.5% NP-40; normoxia or hypoxia (6 h), also CoCl2, 5 μmol/L BAY 11-7085, 20 μmol/L U0126 or ERK2 siRNA.
In another experiment the target is purified GST-ERK2 (UniProt P28482). Description: pull-down; immunoprecipitates of Flag-tagged wild-type 14-3-3ζ from hypoxia-stimulated SW-1990 cells incubated with 100 ng purified GST or GST fusion protein in kinase buffer (50 mM ATP, 150 mM NaCl, 1 mM DTT, 0.5 mM EDTA), 30 min at 30 °C; glutathione agarose beads; both purified.
In experiment [2] the target is Yes-associated protein (YAP), endogenous (human (endogenous in SW-1990)) (UniProt P46937). Description: condition: only e14-3-3ζ-depleted cells reconstituted with mutant 14-3-3ζ S37A; co-IP; nuclear YAP and HIF-1α in sh.14-3-3ζ SW-1990 cells reconstituted with mutant 14-3-3ζ S37A, under hypoxia.
Experiment [3] shares this target. Description: co-IP; nuclear fractions of hypoxia-stimulated SW-1990 (S-1) cells; IP of Myc or of YAP, western blot; also with Flag-14-3-3ζ expression, serum stimuli, ERK2 siRNA (TEAD4 panel), or sh.14-3-3ζ cells reconstituted with wild-type 14-3-3ζ. On the technique in general: Immunoblotting shows a protein as a band on a membrane.
Experiment [4] shares this target. Nature of the experiment: co-IP; nuclear fractions of hypoxia-stimulated SW-1990 cells after depletion of ERK2 with siRNA; IP of YAP, blot for HIF-1α.
Experiment [5] addresses endogenous 14-3-3ζ (human (endogenous in SW-1990)) (UniProt P63104). Description: co-IP; as the co-IP of lysates, cells under hypoxia stimuli (Supplemental Fig. S2e).
Experiment [6] has the same target. Description: co-IP; SW-1990 cell lysates in RIPA buffer, protein A/G-sepharose beads overnight at 4 °C, washes with 300 mM NaCl, 0.5% NP-40; normoxia or hypoxia (6 h), also CoCl2, 5 μmol/L BAY 11-7085, 20 μmol/L U0126 or ERK2 siRNA.

Take “Yes-associated protein (YAP), endogenous (from UniProt P46937 1-504)”: in experiment [1], the binding entry is “binds”.
With “Flag-tagged wild-type 14-3-3ζ (from UniProt P63104 1-245)”, in the experiment with purified GST-ERK2, the binding result was “binds”.
Regarding “Hypoxia-inducible factor 1α (HIF-1α), endogenous (from UniProt Q16665 1-826)”, the binding entry in experiment [2] is “no binding”; in experiment [3], “binds”; in experiment [4], “no binding (condition: after depletion of ERK2 with siRNA)”.
With “WWTR1 (WW domain-containing transcription regulator protein 1) (from UniProt Q9GZV5 1-400)”, the binding entry is reported as “no binding (condition: cells under hypoxia stimuli)” in experiment [5] and “binds” in experiment [6].
